Measurements as given in PubChem BioAssay AID493014 (National Center for Advancing Translational Sciences (NCATS), 2011).
The list shows a part of the results. The main result of the screen is listed elsewhere. These columns were measured beside it and carry no call. The list favours compounds with an active or inconclusive main result. Words in brackets tell the shape of the fitted curve; partial curves, single points and poor fits give uncertain potencies.

Assay: qHTS Assay to Find Inhibitors of Chronic Active B-Cell Receptor Signaling
Conditions: ABC-DLBCL IkBa-CBG/CBR reporter, luminescence ratio (green luciferase fused to IkBa over red control in TMD8 lymphoma cells), 4 h
In short: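 TMD8 ABC-DLBCL cells carrying doxycycline-inducible green luciferase fused to IkappaBalpha plus unfused red luciferase were exposed to compounds (up to 46 uM) for 4 hrs at 37C. Activity came from the overlap-corrected green/red luminescence ratio.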

[1] = measured here: CBR red luminescence, cell number
[2] = measured here: IkBa-CBG green luminescence

CCCCCC(=O)N/N=C(\C)c1ccc(N2CCCCC2)cc1
AC50 [1]: 4.11 µM [rising, single point]

Cc1ccc(C)c(NC(=O)c2ccccc2NS(=O)(=O)c2cc([N+](=O)[O-])ccc2C)c1
AC50 [1]: 4.11 µM [falling, full curve]

CCCCOC(=O)c1ccc(NC(=O)c2ocnc2C)cc1
AC50 [1]: 5.62 µM [rising, full curve]

COc1ccc(NC(=O)CN(C)CC(=O)Nc2cccc(S(=O)(=O)N(C)c3ccccc3)c2)cc1
AC50 [1]: 35.5 µM [falling, single point]

COC(=O)c1ccc(-n2nnnc2SCC(=O)Nc2ccccc2OC)cc1
AC50 [1]: 20 µM [falling, partial curve]

Cc1ccc(OCc2ccc(C(=O)NN)o2)cc1C
AC50 [1]: 7.08 µM [falling, partial curve]

CCCCCc1nc2c(=O)[nH]c3ccccc3c2o1
AC50 [1]: 0.251 µM [rising, full curve, poor fit]

COc1cc(OC)cc(C(=O)N[C@H](C(=O)Nc2nc(-c3ccc(OC)c(OC)c3)cs2)C(C)C)c1
AC50 [2]: 0.708 µM [falling, partial curve, poor fit]

CCN1CCCC1CNC(=O)C(=O)Nc1ccccc1 (centres undefined)
AC50 [1]: 8.91 µM [falling, partial curve, poor fit]

O=C(CSc1nnc(-c2ccncc2)n1-c1ccc(Cl)cc1)N1CCOCC1
AC50 [1]: 16.4 µM [rising, partial curve]

COc1cccc(NC(=O)C(=O)NCc2ccncc2)c1
AC50 [1]: 8.91 µM [falling, partial curve]

COc1ccc(-c2cn3ccsc3n2)cc1
AC50 [1]: 0.2 µM [rising, full curve, poor fit]

COc1cc(NC(=O)Cn2nc(-c3ccc(F)cc3)ccc2=O)ccc1-n1cnnn1
AC50 [1]: 35.5 µM [rising, single point]

COC(=O)c1nnc(-c2ccccc2)nc1OC
AC50 [1]: 20.6 µM [falling, single point]

CCOC(=O)c1sc(NC(=O)c2sc(C)nc2C)nc1C
AC50 [1]: 0.398 µM [falling, full curve]

O=C(Nc1ccc(OC(F)F)c(Cl)c1)C(c1ccccc1)c1ccccc1
AC50 [1]: 16.4 µM [falling, single point] | AC50 [2]: 16.4 µM [rising, single point]

COc1cc(/C=C2/C(=O)NN(c3ccccc3)C2=O)cc(Br)c1O
AC50 [1]: 22.4 µM [falling, single point]

CSc1ccccc1OCc1cc(C(=O)N(C)CCc2c(C)n[nH]c2C)no1
AC50 [1]: 0.1 µM [falling, full curve, poor fit]

NC(=O)c1ccc2nc(-c3ccccc3)c(-c3ccccc3)nc2c1
AC50 [1]: 15.8 µM [falling, single point]

COc1ccccc1-c1cn[nH]c1-c1ccc(OCc2ccc(F)cc2)cc1O
AC50 [2]: 35.5 µM [rising, partial curve, poor fit]

CCN(CC)S(=O)(=O)c1cccc(NC(=O)CCNC(=O)c2ccc([N+](=O)[O-])cc2)c1
AC50 [1]: 5.62 µM [rising, single point]

CCN(CC)C(=O)CSc1nnc(-n2nc(C)cc2C)c2ccccc12
AC50 [1]: 17.8 µM [falling, single point]

O=C(O)Cn1c(O)c(C2=c3ccccc3=NC2=O)sc1=O
AC50 [1]: 15.8 µM [falling, partial curve, poor fit]

CCN(CCCNC(=O)c1[nH]c(C)c(C(C)=O)c1C)c1ccccc1
AC50 [1]: 1.03 µM [rising, partial curve]

Cc1cc(NN)nc(NS(=O)(=O)c2ccccc2)n1
AC50 [1]: 10 µM [falling, partial curve, poor fit]

O=C(/C=C/c1ccc(O)cc1)c1ccc(NC2=C(N3CCCCC3)C(=O)c3ccccc3C2=O)cc1
AC50 [1]: 35.5 µM [falling, single point]

CCOC(=O)c1c(C)c(C(=O)OCC)n(C)c1C
AC50 [1]: 2.24 µM [rising, full curve] | AC50 [2]: 10 µM [falling, partial curve]

COCCNC(=S)N1CCc2cc(OC)c(OC)cc2C1c1cccs1 (centres undefined)
AC50 [1]: 35.5 µM [falling, single point]

CC(=O)NC(CC(=O)Nc1ccc(S(=O)(=O)N2CCCCC2)cc1)c1ccccc1 (centres undefined)
AC50 [1]: 18.4 µM [rising, partial curve, poor fit]

COC(=O)c1n[nH]n(-c2ccc(F)c(Cl)c2)c1=O
AC50 [1]: 12.6 µM [falling, partial curve]

O=C(CCl)N1CCN(S(=O)(=O)c2ccc3c(c2)OCCCO3)CC1
AC50 [1]: 23.1 µM [falling, single point]

O=C(Cn1nnc(-c2ccc3c(c2)OCO3)n1)Nc1ccccc1C(=O)O
AC50 [1]: 3.98 µM [rising, partial curve, poor fit]

OC(COc1c(Br)cc(Br)cc1Br)CN1CCOCC1 (centres undefined)
AC50 [1]: 20 µM [falling, single point]

CCCCCn1c(N)c(-c2nc3ccccc3o2)c2c([N+](=O)[O-])nn(CC)c(=O)c21
AC50 [1]: 0.291 µM [rising, full curve, poor fit]

O=S(=O)(c1ccc(S(=O)(=O)N2CCC3(CC2)OCCO3)cc1)N1CCCC1
AC50 [1]: 2.82 µM [rising, partial curve, poor fit]

CCc1ccc(/C=N/NC(=O)c2cc(C3CC3)nc3ccccc23)s1
AC50 [1]: 2.31 µM [rising, partial curve, poor fit] | AC50 [2]: 4.61 µM [falling, partial curve]

C[C@H](NC(=O)[C@@H]1Cc2ccccc2CN1)C(=O)NC1CCCCC1
AC50 [1]: 20 µM [falling, single point]

CCS(=O)(=O)Nc1cccc(-c2ccc3nnc(C)n3n2)c1
AC50 [2]: 15.8 µM [falling, partial curve, poor fit]

O=S(=O)(Cc1cnc(Cl)s1)c1ccccc1
AC50 [1]: 16.4 µM [rising, single point]

O=C(CCN1C(=O)c2ccccc2S1(=O)=O)Nc1ccccc1O
AC50 [1]: 4.11 µM [falling, full curve]

Cn1c(-c2c(N)n(CCCc3ccccc3)c3nc4ccccc4nc23)nc2ccccc21
AC50 [1]: 5.62 µM [falling, partial curve, poor fit]
